This passage reports log2 fold change results from the supplement of paper PMC10849652.

Sequences of proteins named here, by UniProt entry; tags and fusion partners are left off. A change or cut given only in a name is not applied to a line headed by its entry.
UniProt Q15363: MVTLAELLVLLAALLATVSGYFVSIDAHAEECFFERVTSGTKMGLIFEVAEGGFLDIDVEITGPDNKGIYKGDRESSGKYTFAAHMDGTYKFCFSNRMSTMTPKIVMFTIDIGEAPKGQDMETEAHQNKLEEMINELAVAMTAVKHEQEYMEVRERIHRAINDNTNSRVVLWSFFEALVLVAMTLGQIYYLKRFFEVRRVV
UniProt Q9NV96: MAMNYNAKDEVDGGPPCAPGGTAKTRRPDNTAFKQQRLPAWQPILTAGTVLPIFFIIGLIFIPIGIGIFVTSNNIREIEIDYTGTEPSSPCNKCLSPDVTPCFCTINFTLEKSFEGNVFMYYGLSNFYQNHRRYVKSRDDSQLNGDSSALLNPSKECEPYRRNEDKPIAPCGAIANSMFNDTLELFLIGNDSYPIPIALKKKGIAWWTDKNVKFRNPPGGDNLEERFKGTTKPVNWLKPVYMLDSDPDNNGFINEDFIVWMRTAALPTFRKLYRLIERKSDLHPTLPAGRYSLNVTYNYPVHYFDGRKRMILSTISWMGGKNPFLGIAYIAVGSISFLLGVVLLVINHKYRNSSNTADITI
UniProt Q6PL24: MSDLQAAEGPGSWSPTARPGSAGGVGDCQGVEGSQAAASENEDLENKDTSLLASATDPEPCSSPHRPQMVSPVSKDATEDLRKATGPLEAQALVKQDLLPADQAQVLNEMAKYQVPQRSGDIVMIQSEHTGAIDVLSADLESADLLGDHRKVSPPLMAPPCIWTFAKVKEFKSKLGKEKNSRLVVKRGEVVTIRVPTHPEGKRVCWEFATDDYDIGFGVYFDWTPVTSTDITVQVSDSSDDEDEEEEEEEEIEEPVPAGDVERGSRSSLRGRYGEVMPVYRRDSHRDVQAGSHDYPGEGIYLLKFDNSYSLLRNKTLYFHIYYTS
UniProt P42167: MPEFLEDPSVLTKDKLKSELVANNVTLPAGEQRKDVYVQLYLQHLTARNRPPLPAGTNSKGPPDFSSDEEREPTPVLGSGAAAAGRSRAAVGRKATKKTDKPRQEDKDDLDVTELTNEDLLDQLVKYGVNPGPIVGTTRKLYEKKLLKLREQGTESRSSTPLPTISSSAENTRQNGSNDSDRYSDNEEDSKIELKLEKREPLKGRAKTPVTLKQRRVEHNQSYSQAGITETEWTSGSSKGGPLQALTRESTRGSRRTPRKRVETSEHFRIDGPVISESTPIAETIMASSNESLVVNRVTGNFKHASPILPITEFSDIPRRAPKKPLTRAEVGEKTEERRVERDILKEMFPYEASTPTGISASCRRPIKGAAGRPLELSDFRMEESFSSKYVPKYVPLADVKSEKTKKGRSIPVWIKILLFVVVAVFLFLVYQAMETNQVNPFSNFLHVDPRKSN
UniProt O94886: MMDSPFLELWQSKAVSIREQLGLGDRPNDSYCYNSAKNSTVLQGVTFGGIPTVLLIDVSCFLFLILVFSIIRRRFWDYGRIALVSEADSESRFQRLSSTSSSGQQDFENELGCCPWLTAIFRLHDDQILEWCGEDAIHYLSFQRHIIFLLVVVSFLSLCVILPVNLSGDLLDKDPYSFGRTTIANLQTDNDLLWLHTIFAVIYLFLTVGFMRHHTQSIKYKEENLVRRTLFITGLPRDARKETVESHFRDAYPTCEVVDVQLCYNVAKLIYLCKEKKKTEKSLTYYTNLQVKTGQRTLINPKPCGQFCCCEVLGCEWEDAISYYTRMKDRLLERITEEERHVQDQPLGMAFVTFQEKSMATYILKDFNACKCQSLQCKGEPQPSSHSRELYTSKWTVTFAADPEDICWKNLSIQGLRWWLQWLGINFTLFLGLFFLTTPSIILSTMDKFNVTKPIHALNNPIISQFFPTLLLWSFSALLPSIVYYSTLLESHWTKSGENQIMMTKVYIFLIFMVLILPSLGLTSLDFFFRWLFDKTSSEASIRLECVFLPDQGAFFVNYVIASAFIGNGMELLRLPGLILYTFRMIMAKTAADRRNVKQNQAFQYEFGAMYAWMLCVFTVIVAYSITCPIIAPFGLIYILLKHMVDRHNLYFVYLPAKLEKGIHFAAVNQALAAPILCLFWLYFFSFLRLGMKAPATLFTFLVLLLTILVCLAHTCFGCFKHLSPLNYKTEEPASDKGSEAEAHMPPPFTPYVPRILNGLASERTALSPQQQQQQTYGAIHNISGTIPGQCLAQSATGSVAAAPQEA
UniProt Q86UB9: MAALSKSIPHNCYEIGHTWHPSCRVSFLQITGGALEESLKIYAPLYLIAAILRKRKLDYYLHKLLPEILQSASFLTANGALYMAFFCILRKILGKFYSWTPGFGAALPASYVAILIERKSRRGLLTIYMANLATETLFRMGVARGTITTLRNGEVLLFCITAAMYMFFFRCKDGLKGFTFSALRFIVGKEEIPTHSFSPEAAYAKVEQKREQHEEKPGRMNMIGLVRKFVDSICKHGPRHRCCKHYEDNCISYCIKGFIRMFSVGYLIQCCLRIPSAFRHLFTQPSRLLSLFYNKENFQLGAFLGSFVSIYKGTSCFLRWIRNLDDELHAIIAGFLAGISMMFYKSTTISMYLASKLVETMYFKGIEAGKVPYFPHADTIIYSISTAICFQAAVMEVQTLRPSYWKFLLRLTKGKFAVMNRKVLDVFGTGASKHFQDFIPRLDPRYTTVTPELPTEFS
UniProt Q96A57: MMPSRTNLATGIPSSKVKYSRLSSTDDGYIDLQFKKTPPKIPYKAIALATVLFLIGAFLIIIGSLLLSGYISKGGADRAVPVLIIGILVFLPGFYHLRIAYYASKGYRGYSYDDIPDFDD
UniProt Q9HD45: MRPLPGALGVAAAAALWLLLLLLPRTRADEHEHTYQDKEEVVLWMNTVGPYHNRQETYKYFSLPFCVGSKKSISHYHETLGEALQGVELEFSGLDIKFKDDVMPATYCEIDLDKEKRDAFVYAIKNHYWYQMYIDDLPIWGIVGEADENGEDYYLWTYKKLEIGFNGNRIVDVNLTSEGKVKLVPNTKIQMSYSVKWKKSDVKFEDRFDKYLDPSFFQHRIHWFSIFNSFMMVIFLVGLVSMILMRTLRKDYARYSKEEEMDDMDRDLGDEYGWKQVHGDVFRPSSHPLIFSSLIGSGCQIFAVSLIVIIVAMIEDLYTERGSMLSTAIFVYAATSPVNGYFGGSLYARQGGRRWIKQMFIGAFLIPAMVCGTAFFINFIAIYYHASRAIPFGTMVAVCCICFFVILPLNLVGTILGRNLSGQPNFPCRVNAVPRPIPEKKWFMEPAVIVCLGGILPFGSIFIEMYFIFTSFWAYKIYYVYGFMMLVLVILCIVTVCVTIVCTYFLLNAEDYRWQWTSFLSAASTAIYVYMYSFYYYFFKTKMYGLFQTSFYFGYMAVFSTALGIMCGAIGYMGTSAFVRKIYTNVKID
UniProt Q9NVH6: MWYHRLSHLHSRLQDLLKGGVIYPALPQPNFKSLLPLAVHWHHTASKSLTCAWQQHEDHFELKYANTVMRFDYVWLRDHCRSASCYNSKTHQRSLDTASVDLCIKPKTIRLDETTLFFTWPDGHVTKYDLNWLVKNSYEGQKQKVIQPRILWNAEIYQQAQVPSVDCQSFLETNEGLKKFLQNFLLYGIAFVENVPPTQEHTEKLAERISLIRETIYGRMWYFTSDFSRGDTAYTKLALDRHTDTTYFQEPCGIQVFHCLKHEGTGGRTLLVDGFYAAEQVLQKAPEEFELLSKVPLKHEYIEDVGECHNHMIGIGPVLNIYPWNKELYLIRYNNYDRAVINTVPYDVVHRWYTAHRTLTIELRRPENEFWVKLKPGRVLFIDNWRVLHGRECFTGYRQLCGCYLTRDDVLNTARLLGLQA
UniProt Q71RG4: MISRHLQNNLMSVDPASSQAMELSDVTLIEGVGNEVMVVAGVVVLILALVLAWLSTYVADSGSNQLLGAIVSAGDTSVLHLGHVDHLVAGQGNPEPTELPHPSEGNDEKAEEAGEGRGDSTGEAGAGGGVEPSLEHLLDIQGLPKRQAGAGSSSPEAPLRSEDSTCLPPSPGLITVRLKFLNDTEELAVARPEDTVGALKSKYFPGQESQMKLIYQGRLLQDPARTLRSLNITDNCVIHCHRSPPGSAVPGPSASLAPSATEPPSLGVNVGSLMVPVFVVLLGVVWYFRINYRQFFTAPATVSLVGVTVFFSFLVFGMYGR
UniProt P82094: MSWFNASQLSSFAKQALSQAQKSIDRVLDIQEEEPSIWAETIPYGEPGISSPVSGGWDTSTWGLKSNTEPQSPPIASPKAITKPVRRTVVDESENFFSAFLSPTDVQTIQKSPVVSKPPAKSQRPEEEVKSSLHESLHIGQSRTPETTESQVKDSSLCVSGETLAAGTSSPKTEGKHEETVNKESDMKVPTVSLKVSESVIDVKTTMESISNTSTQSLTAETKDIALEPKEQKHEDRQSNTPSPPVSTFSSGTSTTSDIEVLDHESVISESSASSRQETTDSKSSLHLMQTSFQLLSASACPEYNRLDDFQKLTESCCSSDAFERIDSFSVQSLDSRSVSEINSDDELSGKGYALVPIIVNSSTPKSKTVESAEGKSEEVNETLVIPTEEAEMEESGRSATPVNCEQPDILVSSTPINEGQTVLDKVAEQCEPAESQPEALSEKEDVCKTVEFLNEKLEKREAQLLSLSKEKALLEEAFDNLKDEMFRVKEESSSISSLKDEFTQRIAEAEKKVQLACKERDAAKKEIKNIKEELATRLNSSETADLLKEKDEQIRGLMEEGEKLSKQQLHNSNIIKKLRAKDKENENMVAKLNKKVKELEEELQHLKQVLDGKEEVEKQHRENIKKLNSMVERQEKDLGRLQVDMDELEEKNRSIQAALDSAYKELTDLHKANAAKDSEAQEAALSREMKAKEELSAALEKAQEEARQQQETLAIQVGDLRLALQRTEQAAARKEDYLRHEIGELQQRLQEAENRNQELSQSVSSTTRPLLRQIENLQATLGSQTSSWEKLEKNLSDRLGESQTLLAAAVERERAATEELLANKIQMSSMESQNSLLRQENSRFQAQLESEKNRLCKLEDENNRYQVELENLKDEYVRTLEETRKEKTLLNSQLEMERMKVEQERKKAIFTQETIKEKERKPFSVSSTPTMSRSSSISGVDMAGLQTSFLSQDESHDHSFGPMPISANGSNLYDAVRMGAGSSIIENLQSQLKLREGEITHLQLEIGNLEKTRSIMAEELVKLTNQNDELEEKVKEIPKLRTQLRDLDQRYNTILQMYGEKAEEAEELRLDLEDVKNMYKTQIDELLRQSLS
UniProt Q9HC07: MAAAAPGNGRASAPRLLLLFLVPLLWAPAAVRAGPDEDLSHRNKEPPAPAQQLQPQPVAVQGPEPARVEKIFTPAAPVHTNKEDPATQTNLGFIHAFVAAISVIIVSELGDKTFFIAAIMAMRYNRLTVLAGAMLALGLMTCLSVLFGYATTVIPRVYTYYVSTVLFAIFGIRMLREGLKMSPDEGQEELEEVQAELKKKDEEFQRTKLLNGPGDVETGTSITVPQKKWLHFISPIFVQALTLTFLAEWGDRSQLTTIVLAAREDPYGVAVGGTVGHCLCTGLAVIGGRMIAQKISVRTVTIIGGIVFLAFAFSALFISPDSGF
UniProt Q9NWD8: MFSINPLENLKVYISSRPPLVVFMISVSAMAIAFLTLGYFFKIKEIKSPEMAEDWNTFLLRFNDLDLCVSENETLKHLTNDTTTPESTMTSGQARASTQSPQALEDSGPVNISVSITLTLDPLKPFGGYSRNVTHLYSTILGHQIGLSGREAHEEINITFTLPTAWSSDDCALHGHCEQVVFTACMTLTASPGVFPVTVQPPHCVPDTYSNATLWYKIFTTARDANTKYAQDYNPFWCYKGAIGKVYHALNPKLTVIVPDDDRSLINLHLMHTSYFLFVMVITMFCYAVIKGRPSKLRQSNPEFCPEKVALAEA
UniProt Q6UW68: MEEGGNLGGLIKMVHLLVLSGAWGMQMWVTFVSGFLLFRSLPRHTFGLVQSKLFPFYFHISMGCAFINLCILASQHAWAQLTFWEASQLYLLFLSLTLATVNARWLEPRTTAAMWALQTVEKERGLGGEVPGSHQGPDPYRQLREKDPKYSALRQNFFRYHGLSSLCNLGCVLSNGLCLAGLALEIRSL
UniProt Q5BJF2, whole entry, looked up: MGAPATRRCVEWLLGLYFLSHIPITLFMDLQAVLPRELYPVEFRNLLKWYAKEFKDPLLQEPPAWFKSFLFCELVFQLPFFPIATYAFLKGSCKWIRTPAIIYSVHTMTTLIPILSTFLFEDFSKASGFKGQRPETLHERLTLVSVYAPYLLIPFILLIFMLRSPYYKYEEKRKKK
UniProt Q9Y320, whole entry, looked up: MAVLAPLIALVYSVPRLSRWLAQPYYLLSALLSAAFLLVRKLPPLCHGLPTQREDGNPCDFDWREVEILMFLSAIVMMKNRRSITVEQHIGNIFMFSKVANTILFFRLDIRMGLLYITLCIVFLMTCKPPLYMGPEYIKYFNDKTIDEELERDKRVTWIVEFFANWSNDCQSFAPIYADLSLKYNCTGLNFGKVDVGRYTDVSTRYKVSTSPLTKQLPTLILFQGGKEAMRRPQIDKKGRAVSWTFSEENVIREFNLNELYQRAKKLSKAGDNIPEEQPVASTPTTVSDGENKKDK

This is one part of the list.

Compound in this assay: c1cn2cc(-c3ccc4cn[nH]c4c3)nc(Nc3ccc(N4CCOCC4)cc3)c2n1 [entospletinib]
In words: log2 fold change, soluble protein after heating vs DMSO (PISA); higher = thermal stabilisation; K562 cells, 10 uM, 30 min; active = over 0.2 and 3.5 SD of the protein, either way, in both replicates (recomputed). An outline of the steps: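 Quantification of soluble protein used TMTpro 16plex LC-MS/MS, with channel sums equalised. Samples were the supernatant after 21,000xg for 90 min of pooled aliquots from K562 cells (2×10^6 cells/mL) treated with 10 μM compound for 30 min, heated for 3 min over 48°C-58°C, and extracted in PBS with 0.5% NP-40 at 4°C. Values, from duplicates, describe thermal stability against control samples on a log2 fold-change scale.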
As to TMEM109 (UniProt Q9BVC6), the log2 fold change is inactive: -0.002.

For the target TMED2 (UniProt Q15363), the log2 fold change is inactive: -0.01.

TMEM30A (UniProt Q9NV96): the log2 fold change was inactive: -0.024.

With TMED8 (UniProt Q6PL24), the log2 fold change was inactive: 0.038.

For TMPO (UniProt P42167), the log2 fold change is inactive: -0.073.

On to TMEM63A (UniProt O94886), for which the log2 fold change was inactive: 0.019.

For the target TMEM135 (UniProt Q86UB9), the log2 fold change is inactive: 0.039.

Take TLE4 isoform 3 (UniProt Q04727): the log2 fold change is inactive: 0.038.

As to TMEM62 (UniProt Q0P6H9), the log2 fold change was inactive: -0.051.

TMEM230 isoform 2 (UniProt Q96A57): the log2 fold change is inactive: -0.038.

For the target TM2D3 (UniProt Q9BRN9), the log2 fold change is inactive: -0.161.

For the target TM9SF3 (UniProt Q9HD45), the log2 fold change was inactive: 0.024.

Take TMPPE (UniProt Q6ZT21): the log2 fold change was inactive: 0.008.

For the target TMLHE isoform 8 (UniProt Q9NVH6), the log2 fold change was inactive: -0.026.

Regarding TMEM267 (UniProt Q0VDI3), the log2 fold change is inactive: -0.094.

On to TMX4 (UniProt Q9H1E5), for which the log2 fold change is inactive: -0.003.

For TMUB2 (UniProt Q71RG4), the log2 fold change is inactive: -0.006.

TMEM11 (UniProt P17152): the log2 fold change is inactive: 0.011.

On to TMEM101 (UniProt Q96IK0), for which the log2 fold change is inactive: 0.023.

As to TMF1 (UniProt P82094), the log2 fold change was inactive: 0.018.

Take TMEM165 (UniProt Q9HC07): the log2 fold change was inactive: 0.028.

As for TMEM65 (UniProt Q6PI78), the log2 fold change is inactive: 0.109.

Regarding TMEM115 (UniProt Q12893), the log2 fold change was inactive: -0.009.

With TLR9 isoform 4 (UniProt Q9NR96), the log2 fold change was inactive: 0.162.

With TMEM248 (UniProt Q9NWD8), the log2 fold change is inactive: -0.11.

For TNFRSF10B (UniProt O14763), the log2 fold change is inactive: -0.05.

For TMEM205 (UniProt Q6UW68), the log2 fold change is inactive: 0.05.

On to TMEM97 (UniProt Q5BJF2), for which the log2 fold change was inactive: -0.016.

For the target TMX2 (UniProt Q9Y320), the log2 fold change was inactive: -0.033.
